The values that follow come from publication PMC11231159.

Amino acid sequences for entries named in this document (tags omitted). A change or cut given only in a name is not applied to a line headed by its entry.
UniProt Q15796: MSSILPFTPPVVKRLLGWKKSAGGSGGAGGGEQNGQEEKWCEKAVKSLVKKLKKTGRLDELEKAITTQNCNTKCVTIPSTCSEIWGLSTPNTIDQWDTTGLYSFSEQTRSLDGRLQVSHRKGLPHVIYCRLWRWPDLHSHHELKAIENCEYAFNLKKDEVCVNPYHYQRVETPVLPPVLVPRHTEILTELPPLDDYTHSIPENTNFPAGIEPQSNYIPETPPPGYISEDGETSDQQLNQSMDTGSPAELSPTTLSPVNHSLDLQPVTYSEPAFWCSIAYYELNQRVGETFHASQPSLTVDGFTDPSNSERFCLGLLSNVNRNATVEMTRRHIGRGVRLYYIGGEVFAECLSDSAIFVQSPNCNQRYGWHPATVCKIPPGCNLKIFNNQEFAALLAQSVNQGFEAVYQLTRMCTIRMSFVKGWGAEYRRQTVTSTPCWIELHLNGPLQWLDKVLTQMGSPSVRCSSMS
UniProt P84022: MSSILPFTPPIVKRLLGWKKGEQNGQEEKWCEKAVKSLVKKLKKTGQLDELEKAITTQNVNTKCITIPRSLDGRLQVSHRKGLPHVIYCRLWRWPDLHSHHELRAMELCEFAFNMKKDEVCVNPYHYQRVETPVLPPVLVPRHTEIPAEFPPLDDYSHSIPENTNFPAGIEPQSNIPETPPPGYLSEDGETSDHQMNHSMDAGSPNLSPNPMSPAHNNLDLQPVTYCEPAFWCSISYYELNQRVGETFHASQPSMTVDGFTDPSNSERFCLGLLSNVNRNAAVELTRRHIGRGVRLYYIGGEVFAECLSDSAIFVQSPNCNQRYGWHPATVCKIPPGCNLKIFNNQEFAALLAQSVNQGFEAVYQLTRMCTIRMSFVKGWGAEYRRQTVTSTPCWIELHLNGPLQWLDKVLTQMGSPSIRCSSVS
UniProt Q04206: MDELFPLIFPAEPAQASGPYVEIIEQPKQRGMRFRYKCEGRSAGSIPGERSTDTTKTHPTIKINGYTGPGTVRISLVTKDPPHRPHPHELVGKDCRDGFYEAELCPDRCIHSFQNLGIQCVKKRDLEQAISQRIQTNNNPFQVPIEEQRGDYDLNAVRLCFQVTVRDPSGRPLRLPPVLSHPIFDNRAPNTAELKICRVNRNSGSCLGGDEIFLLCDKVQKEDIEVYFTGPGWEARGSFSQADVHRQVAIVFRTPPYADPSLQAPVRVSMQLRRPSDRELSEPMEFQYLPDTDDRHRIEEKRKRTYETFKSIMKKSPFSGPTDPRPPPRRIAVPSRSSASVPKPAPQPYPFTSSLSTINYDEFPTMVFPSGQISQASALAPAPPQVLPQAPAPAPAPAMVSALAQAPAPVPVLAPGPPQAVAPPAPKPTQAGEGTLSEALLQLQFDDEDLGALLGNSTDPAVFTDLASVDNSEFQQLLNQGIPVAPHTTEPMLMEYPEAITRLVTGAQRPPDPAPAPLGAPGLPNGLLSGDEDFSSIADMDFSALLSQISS

These are yes or no findings as the source states them, for the method shown. Binding seen in cells or lysates may run through a third protein. Some results given as binding are weak or reduced against the parent protein; the word gives no strength.

The target in experiment [1] is T1, SMAD2/3 (human (endogenous in CHLA-255 and SK-N-BE(2))) (UniProt Q15796+P84022). In words: co-IP; lysates (RIPA buffer) of NB cells (CHLA-255, SK-N-BE(2)) co-cultured with MN and MSC (TME) or treated with 1500 pg/ml rTGF-β1 for 72 h; precipitated with anti-SMAD2/3 and Protein G beads, washed with IP buffer containing 0.5 M NaCl/0.1% SDS, blotted with anti-NF-κB p65.

For experiment [2], the target named is T1, SMAD2/3 (human (endogenous in CHLA-255 and SK-N-BE(2))). The experiment in a line: co-IP; cytosolic and nuclear fractions of NB cells (nuclear extraction kit) analysed by co-IP following the same protocol.

As for NF-κB p65 (from UniProt Q04206 1-551), the binding result in experiment [1] and in experiment [2] was “binds” in each case.
